{"source": "patent EP1656945A1", "about": "“Pharmaceutical composition comprising oligoarginine” (THE BOARD OF TRUSTEES OF THE LELAND STANFORD JUNIOR …, priority 1999, dated 2006)", "key": {"[1]": {"tested_on": "human umbilical vein endothelial cells (ECV304)", "test": "In vitro translocation of biotin-labeled peptides into endothelial cells", "format": "cell-based"}, "[2]": {"tested_on": "rat vascular smooth muscle cells (VSMC)", "test": "Translocation of biotin-labeled peptides into cultured VSMC (HRP-streptavidin/DAB staining)", "format": "cell-based", "conditions": "for internalized biotin signal (staining): 30 minutes, 37°C"}}, "note": "Part of at least one peptide drawing is inferred or uncertain, most often the ends.", "data": [{"molecule": "N=C(N)NCCC[C@H](NC(=O)[C@H](CCCNC(=N)N)NC(=O)[C@H](CCCNC(=N)N)NC(=O)[C@H](CCCNC(=N)N)NC(=O)[C@H](CCCNC(=N)N)NC(=O)[C@H](CCCNC(=N)N)NC(=O)[C@H](CCCNC(=N)N)NC(=O)CCCC[C@@H]1SC[C@@H]2NC(=O)N[C@@H]21)C(=O)O", "note": "[bR7, biotin-labeled heptaarginine]", "values": [{"measurement": "internalized biotin", "setting": "[1]; 0.1 µM, 30 minutes", "result": "internalized biotin was observed in the cytoplasm of all EC"}, {"measurement": "internalized biotin", "setting": "[1]; 10.0 µM for 30 minutes", "result": "internalized biotin was detected not only in the cytoplasm but also in the nucleus of virtually all exposed endothelial cells"}, {"measurement": "internalized biotin signal (staining)", "setting": "[2]; 0.1µM", "result": "internalized biotin was observed in all VSMCs"}, {"measurement": "internalized biotin signal (staining)", "setting": "[2]; 10µM", "result": "very intense staining, not only in the cytoplasm, but also in the nucleus of all VSMC"}, {"measurement": "inhibition of translocation by free L-arginine", "setting": "[2]; addition of free L-arginine up to 10mM", "result": "Nor was translocation of bR7 inhibited"}, {"measurement": "cytoplasmic and nuclear staining", "setting": "[2]; cells exposed to 1 % sodium azide for 30 minutes prior to incubation with peptide", "result": "neither cytoplasmic nor nuclear staining was observed"}, {"measurement": "efficacy of translocation", "setting": "[2]; performed at 4°C", "result": "no apparent reduction was observed in the efficacy of bR7 translocation"}]}]}
